The supplement of paper PMC10849652
Some of the results follow.

Amino acid sequences for entries named in this document (tags omitted). A change or cut given only in a name is not applied to a line headed by its entry.
UniProt O75030: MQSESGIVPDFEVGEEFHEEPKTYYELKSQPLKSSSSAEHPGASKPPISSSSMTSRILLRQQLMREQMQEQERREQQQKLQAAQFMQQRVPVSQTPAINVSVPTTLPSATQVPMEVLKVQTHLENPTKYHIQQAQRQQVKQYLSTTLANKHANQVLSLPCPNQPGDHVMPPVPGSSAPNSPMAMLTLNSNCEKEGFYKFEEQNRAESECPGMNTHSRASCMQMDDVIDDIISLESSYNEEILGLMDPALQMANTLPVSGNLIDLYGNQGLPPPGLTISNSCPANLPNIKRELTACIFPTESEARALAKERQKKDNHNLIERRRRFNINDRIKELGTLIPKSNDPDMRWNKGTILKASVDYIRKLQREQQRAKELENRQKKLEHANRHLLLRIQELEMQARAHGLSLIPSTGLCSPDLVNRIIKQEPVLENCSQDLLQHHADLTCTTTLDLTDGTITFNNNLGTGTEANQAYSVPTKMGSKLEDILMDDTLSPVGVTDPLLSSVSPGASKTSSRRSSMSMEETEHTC
UniProt Q9H081: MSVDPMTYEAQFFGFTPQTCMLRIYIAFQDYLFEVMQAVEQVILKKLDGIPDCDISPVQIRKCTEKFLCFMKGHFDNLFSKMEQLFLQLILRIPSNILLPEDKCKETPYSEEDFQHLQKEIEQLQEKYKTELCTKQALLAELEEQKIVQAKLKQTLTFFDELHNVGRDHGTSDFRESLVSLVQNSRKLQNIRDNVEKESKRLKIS
UniProt Q6NTE8: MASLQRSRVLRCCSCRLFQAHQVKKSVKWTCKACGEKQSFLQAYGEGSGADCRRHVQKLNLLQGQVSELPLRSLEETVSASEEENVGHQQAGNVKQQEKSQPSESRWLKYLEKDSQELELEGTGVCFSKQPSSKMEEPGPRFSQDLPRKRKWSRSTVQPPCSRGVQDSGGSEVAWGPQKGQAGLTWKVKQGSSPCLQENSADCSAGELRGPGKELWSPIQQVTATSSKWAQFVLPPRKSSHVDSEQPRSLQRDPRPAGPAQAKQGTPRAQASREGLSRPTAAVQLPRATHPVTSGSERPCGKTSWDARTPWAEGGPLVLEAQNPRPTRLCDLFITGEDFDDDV

Experiments:
Assay in all cases: log2 fold change, soluble protein after heating vs DMSO (PISA); higher = thermal stabilisation; K562 lysate, 10 uM; active = over 0.2 and 3.5 SD of the protein, either way, in both replicates (recomputed)
[1] = compound: CC1=C2C(=CC=C1)N=C(N(C2=O)C3=CC=CC=C3C)CN4C=NC5=C(N=CN=C54)N
Procedure, shortened: (§1)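 K562 pellets were dounce-homogenised in PBS pH 7.4 containing 1 mM MgCl2, and the crude extract, at 1 mg/mL protein, was exposed to 10 μM compound for 30 min. Aliquots were heated for 3 min across 48°C-58°C, pooled, brought to 0.5% NP-40 at 4°C and spun at 21,000xg for 90 min, with the supernatant taken as soluble protein. TMTpro 16plex LC-MS/MS with equalised channel sums quantified that protein. Values are log-two fold changes in thermal stability relative to solvent controls, taken from duplicates.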

[2] = compound: Cc1sc2c(c1C)C(c1ccc(Cl)cc1)=N[C@@H](CC(=O)OC(C)(C)C)c1nnc(C)n1-2
Procedure, shortened: as §1

[3] = compound: c1ccc([C@@H]2C[C@H]2NC2CCNCC2)cc1
Procedure, shortened: as §1

[4] = compound: C1=CC=C(C=C1)[C@H](COC2=CC3=C(C=C2)NC(=O)N3)NC(=O)C4=CC=CN(C4=O)CC5=CC(=C(C=C5)F)F
Procedure, shortened: as §1

[5] = compound: CC1=C(SC2=C1C(=N[C@H](C3=NN=C(N32)C)CC(=O)N)C4=CC=C(C=C4)Cl)C
Procedure, shortened: as §1

Measured: log2 fold change

MITF (UniProt O75030)
inactive: [1] 0.048 | [2] -0.043 | [3] 0.048

MIS12 (UniProt Q9H081)
inactive: [4] 0.014 | [5] -0.014 | [1] 0.043 | [2] 0.004 | [3] -0.03

MRNIP (UniProt Q6NTE8)
inactive: [4] -0.187 | [5] -0.176 | [2] 0 | [3] -0.047
